Laboratory results reported in US20040143007A1, “Malononitrile compounds and their use as pesticides” (priority 2001, published 2004).
Some entries share one result that the patent states for a list of compounds.

Key:
Assay type in all cases: in vivo
[1] = test system: Nilaparvata lugens (brown planthopper); experiment: Pesticidal test against Nilaparvata lugens, rice plants in holed cup placed in test liquid (Test Example 2); settings: active ingredient 45.5 ppm, 55 ml test liquid under holed cup with rice plants for 6 days; 30 first-instar larvae released; 25° C.; 6th day after release
[2] = test system: Nilaparvata lugens (brown planthopper); experiment: Pesticidal test against Nilaparvata lugens, test liquid sprayed onto rice plants (Test Example 1); settings: sprayed 20 ml/cup onto rice plants, 30 first-instar larvae released, 25° C.
[3] = test system: Nilaparvata lugens (brown planthopper); experiment: Pesticidal test against Nilaparvata lugens, rice cotyledons immersed in test liquid (Test Example 3); settings: active ingredient 500 ppm, rice cotyledons immersed 1 minute, 30 first-instar larvae released, 25° C.

Row | SMILES | number of parasitic pests on the 6th day after the treatment [1] | number of parasitic pests on the 6th day after the treatment ([2]; active ingredient 500 ppm) | number of parasitic pests on the 6th day after the treatment ([2]; active ingredient 200 ppm) | number of parasitic pests on the 6th day after the treatment [3]
1 | N#CC(C#N)(Cc1ccc(C(F)(F)F)cc1)CC1CC1 [Compound 6, 2-(cyclopropylmethyl)-2-(4-(trifluoromethyl)benzyl)malononitrile] | ≤ 3 | ≤ 3 | – | –
2 | N#CC(C#N)(Cc1ccc(C(F)(F)F)cc1)CC1CCC1 [Compound 7, 2-(cyclobutylmethyl)-2-(4-(trifluoromethyl)benzyl)malononitrile] | ≤ 3 | ≤ 3 | – | –
3 | N#CC(C#N)(Cc1ccc(SC(F)(F)F)cc1)CC1CCC1 [Compound 4, 2-(cyclobutylmethyl)-2-(4-(trifluoromethylthio)benzyl)malononitrile] | ≤ 3 | – | ≤ 3 | –
4 | N#CC(C#N)(Cc1ccc(OC(F)(F)F)cc1)CC1CC1(Cl)Cl (stereo not shown) [Compound 5, 2-((2,2-dichlorocyclopropyl)methyl)-2-(4-(trifluoromethoxy)benzyl)malononitrile] | ≤ 3 | ≤ 3 | – | –
5 | N#CC(C#N)(Cc1ccc(OC(F)(F)F)cc1)CC1CCC1 [Compound 3, 2-(cyclobutylmethyl)-2-(4-(trifluoromethoxy)benzyl)malononitrile] | ≤ 3 | – | – | –
6 | N#CC(C#N)(Cc1ccc(Cl)cc1)CC1CC1 [Compound 1, 2-(4-chlorobenzyl)-2-(cyclopropylmethyl)malononitrile] | – | – | – | ≤ 3
7 | N#CC(C#N)(Cc1ccc(OC(F)(F)F)cc1)CC1CC1 [Compound 2, 2-(cyclopropylmethyl)-2-(4-(trifluoromethoxy)benzyl)malononitrile] | – | – | – | ≤ 3
8 | N#CC(C#N)(Cc1ccc(C(F)(F)F)cc1)CC1CC1(Cl)Cl (stereo not shown) [Compound 10, 2-((2,2-dichlorocyclopropyl)methyl)-2-(4-(trifluoromethyl)benzyl)malononitrile] | ≤ 3 | ≤ 3 | – | –
